Reference: the supplement of paper PMC8326762, “A Small Molecule Inhibitor of Pex3–Pex19 Interaction Disrupts Glycosome Biogenesis and Causes Lethality in Trypanosoma brucei” (Frontiers in Cell and Developmental Biology, 2021)
Where a name gives a salt, the structure may show the parent alone. This is one part of the list. Single values of this set are uncertain.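 Optical density at 600 nm measured yeast growth. Because the two-hybrid strains grew without histidine, growth required Pex3–Pex19 binding. Trypanosome selectivity meant a compound inhibited the trypanosome-pair strain's growth by more than 65% but the human-pair strain's by less than 65%.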

Columns and labels:
[1] = system: Saccharomyces cerevisiae HF7c pdr5Δ; experiment: general growth inhibition of yeast HF7c pdr5Δ in -Leu -Trp medium, relative to DMSO; higher = stronger general growth inhibition; conditions: 100 µM; 24 h
[2] = system: human PEX3-PEX19 interaction (yeast two-hybrid); experiment: growth inhibition of yeast two-hybrid strain reporting HsPex3-HsPex19 interaction, relative to DMSO; higher = stronger inhibition of human Pex3-Pex19 interaction / growth; conditions: 100 µM; 24 h; 3-aminotriazole 10 mM
[3] = system: T. brucei Pex3-Pex19 interaction (yeast two-hybrid); experiment: growth inhibition of yeast two-hybrid strain reporting TbPex3-TbPex19 interaction, relative to DMSO; higher = stronger inhibition of T. brucei Pex3-Pex19 interaction / growth; conditions: 100 µM; 24 h

Structure (SMILES) | general growth inhibition [1] | growth inhibition [2] | growth inhibition [3]
CCOC(=O)c1ccc(C#Cc2ccc3c(c2)C(C)(C)CCS3)nc1 [Tazarotene] | 25.3% | 29.1% | 53.3%
COc1ccc2cc([C@H](C)C(=O)O)ccc2c1 [(-)-Naproxen sodium] | 24.7% | 32.1% | 21.2%
O=C1c2ccccc2-c2n[nH]c3cccc1c23 | 31.7% | 43.2% | 40.1%
C[C@H]1C[C@H]2[C@@H]3CCC4=CC(=O)C=C[C@]4(C)[C@@]3(Cl)[C@@H](O)C[C@]2(C)[C@@]1(O)C(=O)CO [Beclomethasone] | 22.5% | 26.8% | 52%
CCOC(=O)N1CCC(=C2c3ccc(Cl)cc3CCc3cccnc32)CC1 [Loratadine] | 26% | -0.874% | -5.34%
CCN(c1nc(N)c(C(=O)NC(=N)N)nc1Cl)C(C)C [5-(N-Ethyl-N-isopropyl)amiloride] | 31.6% | 26.4% | 52.1%
CSc1nc(N)c2ncn([C@@H]3O[C@H](COP(=O)(O)OP(=O)(O)OP(=O)(O)O)[C@H](O)C3O)c2n1 (stereo partly specified) [2-Methylthioadenosine triphosphate tetrasodium] | 24% | 24.8% | 51.5%
N[C@@H](CCCC(=O)O)C(=O)O [L-2-aminoadipic acid] | 48.7% | 41.9% | 51.5%
CCCCS(=N)(=O)CCC(N)C(=O)O [L-Buthionine-sulfoximine] | 29.5% | 30.7% | 49%
Nc1ccc(N2C(=O)c3ccccc3C2=O)c(Cl)c1 [N-(4-Amino-2-chlorophenyl)phthalimide] | 38.2% | 33.4% | 45.5%
CC(Cc1ccc(O)c(O)c1)(NN)C(=O)O (stereo not drawn) [S-(-)-Carbidopa] | 26.6% | 37.5% | 53.5%
CCN1CCCC1CNC(=O)c1cc(S(N)(=O)=O)ccc1OC (single isomer, unassigned; (-)) [(-)-Sulpiride] | 60.7% | 52.1% | 71.8%
C=C(C)[C@@H]1CC=C(C(=O)O)CC1 [(-)-Perillic acid] | 69.6% | 55% | 77.8%
CN(C)CCCN1c2ccccc2CCc2ccccc21 [Imipramine hydrochloride] | 35.7% | 45.3% | 65.1%
Cc1nc(N=Nc2ccc(S(=O)(=O)O)cc2S(=O)(=O)O)c(COP(=O)(O)O)c(C=O)c1O | 48.5% | 38.4% | 60.3%
COCC(=O)O[C@]1(CCN(C)CCCc2nc3ccccc3[nH]2)CCc2cc(F)ccc2[C@@H]1C(C)C [Mibefradil dihydrochloride] | 40.2% | 37% | 61.1%
CCOC(=O)Nc1ccc(NCc2ccc(F)cc2)nc1N [Flupirtine maleate] | 23.7% | 31.4% | 50.5%
OCCN1CCN(CC/C=C2/c3ccccc3Sc3ccc(C(F)(F)F)cc32)CC1 [cis-(Z)-Flupenthixol dihydrochloride] | 13.2% | 26.1% | 46.2%
Clc1ccc2nsnc2c1NC1=NCCN1 [Tizanidine hydrochloride] | 40.3% | 45.8% | 56.2%
NCC=CC(=O)O (stereo in doubt) [cis-4-Aminocrotonic acid] | 68% | 56.2% | 60.9%
CCCCC[C@H](CC(=O)NO)C(=O)N[C@H](C(=O)N1CCC[C@H]1CO)C(C)C [Actinonin] | 12.6% | 9.77% | 27.5%
O=[N+]([O-])c1cc2nc(O)c(O)nc2cc1[N+](=O)[O-] | 45.7% | 43% | 64.7%
COc1ccc2cccc(CCNC(C)=O)c2c1 [Agomelatine] | 21.3% | 14.8% | 36.4%

5 entries from above, in CSV form:
Structure (SMILES),general growth inhibition [1],growth inhibition [2],growth inhibition [3]
C[C@H]1C[C@H]2[C@@H]3CCC4=CC(=O)C=C[C@]4(C)[C@@]3(Cl)[C@@H](O)C[C@]2(C)[C@@]1(O)C(=O)CO [Beclomethasone],22.5%,26.8%,52%
COCC(=O)O[C@]1(CCN(C)CCCc2nc3ccccc3[nH]2)CCc2cc(F)ccc2[C@@H]1C(C)C [Mibefradil dihydrochloride],40.2%,37%,61.1%
Clc1ccc2nsnc2c1NC1=NCCN1 [Tizanidine hydrochloride],40.3%,45.8%,56.2%
CCCCC[C@H](CC(=O)NO)C(=O)N[C@H](C(=O)N1CCC[C@H]1CO)C(C)C [Actinonin],12.6%,9.77%,27.5%
O=[N+]([O-])c1cc2nc(O)c(O)nc2cc1[N+](=O)[O-],45.7%,43%,64.7%

The listing continues:

Structure (SMILES) | general growth inhibition [1] | growth inhibition [2] | growth inhibition [3]
Nc1cc(Cl)c(NC2=NCCN2)c(Cl)c1 [p-Aminoclonidine hydrochloride] | 45.7% | 41.8% | 63.6%
Nc1nc2c(ncn2COC(CO)CO)c(=O)[nH]1 [Ganciclovir] | 25.5% | 35.6% | 58.5%
CCCCOc1cc(CC2CNC(=O)N2)ccc1OC (stereo unspecified) | 49.5% | 44.4% | 62.8%
CCCCCCCC/C=C\CCCCCCCC(=O)NCCc1ccc(O)c(O)c1 [N-Oleoyldopamine] | 37.6% | 24.1% | 54%
COc1cc(/C=C(\C#N)C(=O)Nc2nnc(C(F)(F)F)s2)ccc1OCc1ccc(C(F)(F)F)cc1C(F)(F)F | 37.8% | 29.1% | 53.8%
CCN1CCc2nc(N)oc2CC1 [B-HT 933 dihydrochloride] | 42.5% | 41.6% | 64.6%
CCCC1O[C@@H]2C[C@H]3[C@@H]4CCC5=CC(=O)C=C[C@]5(C)[C@H]4[C@@H](O)C[C@]3(C)[C@]2(C(=O)CO)O1 (stereo partly specified) [Budesonide] | 39.3% | 36.9% | 51.2%
CN(C)c1ccc(/C=C2/C(=O)Nc3ccccc32)cc1 | 29.9% | 23.6% | 28.3%
COc1ccc2c(c1)c(CC(=O)O)c(C)n2Cc1ccc(Cl)cc1 [1-(4-Chlorobenzyl)-5-methoxy-2-methylindole-3-acetic acid] | 8.13% | -9.13% | 12.8%
C[C@H](NC(=O)/C(C#N)=C/c1ccc(O)c(O)c1)c1ccccc1 [Tyrphostin AG 835] | 7.12% | 5.16% | 38.1%
OC[C@H]1O[C@@H](n2cnc3c(N[C@H]4CCC[C@@H]4O)ncnc32)[C@H](O)[C@@H]1O | 43.5% | 46.3% | 61.4%
N[C@@H](COP(=O)(O)O)C(=O)O [O-Phospho-L-serine] | 38.9% | 37.9% | 58.1%
C#CCN(C)Cc1ccccc1 [Pargyline hydrochloride] | 49.9% | 41.5% | 64.6%
NC1=NCC2c3ccccc3Cc3ccccc3N12 (stereo unspecified) [Epinastine hydrochloride] | 28% | 33.6% | 59.1%
Nc1ccc2c3c(cccc13)C(=O)NC2=O [4-Amino-1,8-naphthalimide] | 32.9% | 30.4% | 35.2%
O=c1oc(Cl)c(Cl)c2ccccc12 [3,4-Dichloroisocoumarin] | 87.1% | 88.2% | 85.2%
CC[C@@H]1C(=O)OC[C@@H]1Cc1cncn1C [(+)-Pilocarpine hydrochloride] | 51.6% | 47% | 64.2%
C=CCc1cccc(/C=N/NC(=O)CN2CCN(Cc3ccccc3)CC2)c1O | 48.6% | 31.9% | 45.9%
Cc1cccc(C(=O)NCN2CCN(c3ccccc3C#N)CC2)c1 [PD 168,077 maleate] | 19.3% | 16.3% | 44.5%
CC(=O)NC(C(=O)O)C(C)(C)SN=O (stereo unspecified) [S-Nitroso-N-acetylpenicillamine] | 56.4% | 54.1% | 65.2%
CC1CCN(CC[C@H]2CCCN2S(=O)(=O)c2cccc(O)c2)CC1 | 43% | 40.3% | 61.2%
COc1ccc2c(c1)c(CC(=O)O)c(C)n2C(=O)c1ccc(Cl)cc1 [Indomethacin] | 64.5% | 46.5% | 55.5%
O=C(Nc1cccnc1)N1CCC(Cc2cccc(Oc3ccc(C(F)(F)F)cn3)c2)CC1 [PF 3845 hydrate] | 73% | 63.1% | 53.6%

Structure (SMILES) | general growth inhibition [1] | growth inhibition [2] | growth inhibition [3]
C=CCN1CCc2cc(O)c(O)cc2C(c2ccccc2)C1 (racemic) | 54.8% | 43.8% | 66.3%
COc1ccccc1N1CCN(CCN2C(=O)CC3(CCCC3)CC2=O)CC1 [BMY 7378 dihydrochloride] | 32.7% | 47.1% | 61.6%
COc1ccccc1N1CCN(CCCNc2c(C)c(=O)n(C)c(=O)n2C)CC1 [Urapidil, 5-Methyl-] | 11.8% | 6.91% | 37.5%
CN(C)S(=O)(=O)c1ccc2c(c1)/C(=C/c1cc3c([nH]1)CCCC3)C(=O)N2 | 50.1% | 33.8% | 53.2%
CN(C)CCC(c1ccc(Cl)cc1)c1ccccn1 (racemic) [(±)-Chlorpheniramine maleate] | 41.8% | 36.9% | 55.1%
CN(C)c1cc2c(Nc3ccc4c(cnn4Cc4ccccc4)c3)ncnc2cn1 | 23% | 9.93% | 53.5%
N[C@@H]1CONC1=O [D-Cycloserine] | 39% | 41.1% | 58.6%
NC(=O)c1cnccn1 [Pyrazinecarboxamide] | 32.1% | 41.9% | 58.4%
O=C(Nc1ccccc1C(=O)NC1CCCCNC1=O)c1cc2ccccc2s1 (stereo unspecified) | 48.3% | 46.6% | 57.5%
Nc1nc(=O)c(Br)c(-c2ccccc2)[nH]1 [Bropirimine] | 40% | 42.8% | 63.4%
COc1cc(OC)cc(-c2cc3cnc(N)nc3nc2NC(=O)NC(C)(C)C)c1 | 55.7% | 40.2% | 64.1%
CN[C@H]1CC[C@@H](c2ccc(Cl)c(Cl)c2)c2ccccc21 [Sertraline hydrochloride] | 38.5% | 33.4% | 58.4%
COc1ccc2c(c1OC)C(=O)O[C@@H]2[C@H]1c2c(cc3c(c2OC)OCO3)CCN1C [Noscapine hydrchloride] | 53.4% | 43.4% | 66.7%
Nc1ncnc2c1c(-c1ccc(Oc3ccccc3)cc1)cn2C1CCCC1 | 54.2% | 35.7% | 77.6%
CN(C)CCC(c1ccc(Br)cc1)c1ccccn1 (single isomer, unassigned; (+)) [(+)-Brompheniramine maleate] | 9.09% | 4.92% | 26.3%
O=C(O)Cc1ccc(O)c(O)c1 [3,4-Dihydroxyphenylacetic acid] | 32.5% | 39.9% | 57.1%
NC(=O)NO [Hydroxyurea] | 39.6% | 39% | 64.6%
Nc1nc2c(ncn2[C@@H]2O[C@H](CO)[C@@H](O)[C@@H]2O)c(=O)[nH]1 [Ara-G hydrate] | 56.9% | 49.2% | 70.5%
O=C1NC(=O)/C(=C/c2ccc(-c3ccc(F)cc3O)o2)S1 | 16.3% | 5.56% | 33.9%
C[N+](C)(C)CCOC(N)=O [Carbachol] | 38.1% | 33.7% | 49.8%
C[N+]1(CCCCC[N+]2(C)CCCC2)CCCC1 [Pentolinium di[L(+)-tartrate]] | 39.1% | 43.1% | 56.3%
